Laboratory results reported in the supplement of paper PMC10849652.
The list shows a part of the results.

By UniProt entry, the sequences of proteins in these tests, tags left out. Where a name states a change or a piece, a line headed by the entry shows the natural chain unless it says otherwise.
UniProt Q969Q6: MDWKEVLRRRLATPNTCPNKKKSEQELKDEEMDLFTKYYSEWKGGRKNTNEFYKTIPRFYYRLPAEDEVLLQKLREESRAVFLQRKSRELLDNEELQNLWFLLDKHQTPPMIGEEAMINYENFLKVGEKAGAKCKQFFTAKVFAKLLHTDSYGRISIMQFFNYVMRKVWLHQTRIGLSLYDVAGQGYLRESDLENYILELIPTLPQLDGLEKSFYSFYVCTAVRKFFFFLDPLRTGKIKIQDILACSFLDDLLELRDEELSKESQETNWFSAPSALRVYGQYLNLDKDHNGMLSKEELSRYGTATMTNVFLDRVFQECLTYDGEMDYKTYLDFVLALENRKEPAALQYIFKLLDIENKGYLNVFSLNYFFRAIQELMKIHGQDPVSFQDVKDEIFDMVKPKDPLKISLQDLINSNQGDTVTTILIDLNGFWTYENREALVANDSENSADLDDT
UniProt Q9H875: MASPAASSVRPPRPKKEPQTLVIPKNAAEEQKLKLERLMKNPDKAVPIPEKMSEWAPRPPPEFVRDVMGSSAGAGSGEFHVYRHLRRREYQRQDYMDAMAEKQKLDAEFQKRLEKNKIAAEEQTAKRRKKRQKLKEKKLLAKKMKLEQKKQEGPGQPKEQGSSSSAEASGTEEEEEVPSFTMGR
UniProt Q9Y5P8: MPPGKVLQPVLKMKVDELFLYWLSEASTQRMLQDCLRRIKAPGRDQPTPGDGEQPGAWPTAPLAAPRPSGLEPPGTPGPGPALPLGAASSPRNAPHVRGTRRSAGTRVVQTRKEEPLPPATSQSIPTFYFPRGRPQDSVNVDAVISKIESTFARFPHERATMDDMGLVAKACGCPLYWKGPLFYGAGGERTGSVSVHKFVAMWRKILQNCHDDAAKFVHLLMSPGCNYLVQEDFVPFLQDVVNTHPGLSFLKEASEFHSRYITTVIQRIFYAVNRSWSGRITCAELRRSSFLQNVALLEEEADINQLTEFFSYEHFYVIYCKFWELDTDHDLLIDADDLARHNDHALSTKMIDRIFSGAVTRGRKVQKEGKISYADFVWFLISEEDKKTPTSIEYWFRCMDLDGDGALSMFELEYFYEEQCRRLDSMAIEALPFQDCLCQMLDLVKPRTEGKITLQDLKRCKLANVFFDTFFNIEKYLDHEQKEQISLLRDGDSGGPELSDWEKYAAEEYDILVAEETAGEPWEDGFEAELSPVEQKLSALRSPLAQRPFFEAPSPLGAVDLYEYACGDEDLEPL
UniProt O43172: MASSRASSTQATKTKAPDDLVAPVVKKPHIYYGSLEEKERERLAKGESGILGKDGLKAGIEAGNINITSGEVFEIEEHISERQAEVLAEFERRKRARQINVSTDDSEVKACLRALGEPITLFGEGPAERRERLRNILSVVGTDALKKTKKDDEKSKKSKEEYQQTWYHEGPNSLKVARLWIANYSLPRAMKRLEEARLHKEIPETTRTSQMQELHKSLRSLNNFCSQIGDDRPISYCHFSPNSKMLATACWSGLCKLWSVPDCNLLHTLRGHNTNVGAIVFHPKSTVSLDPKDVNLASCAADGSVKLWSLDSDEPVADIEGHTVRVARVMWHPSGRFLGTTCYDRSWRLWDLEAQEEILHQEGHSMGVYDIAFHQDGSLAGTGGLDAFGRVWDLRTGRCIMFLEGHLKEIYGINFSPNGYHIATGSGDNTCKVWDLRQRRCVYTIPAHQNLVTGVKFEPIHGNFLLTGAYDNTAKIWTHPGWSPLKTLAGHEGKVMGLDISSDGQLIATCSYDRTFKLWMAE
UniProt Q8WUF5: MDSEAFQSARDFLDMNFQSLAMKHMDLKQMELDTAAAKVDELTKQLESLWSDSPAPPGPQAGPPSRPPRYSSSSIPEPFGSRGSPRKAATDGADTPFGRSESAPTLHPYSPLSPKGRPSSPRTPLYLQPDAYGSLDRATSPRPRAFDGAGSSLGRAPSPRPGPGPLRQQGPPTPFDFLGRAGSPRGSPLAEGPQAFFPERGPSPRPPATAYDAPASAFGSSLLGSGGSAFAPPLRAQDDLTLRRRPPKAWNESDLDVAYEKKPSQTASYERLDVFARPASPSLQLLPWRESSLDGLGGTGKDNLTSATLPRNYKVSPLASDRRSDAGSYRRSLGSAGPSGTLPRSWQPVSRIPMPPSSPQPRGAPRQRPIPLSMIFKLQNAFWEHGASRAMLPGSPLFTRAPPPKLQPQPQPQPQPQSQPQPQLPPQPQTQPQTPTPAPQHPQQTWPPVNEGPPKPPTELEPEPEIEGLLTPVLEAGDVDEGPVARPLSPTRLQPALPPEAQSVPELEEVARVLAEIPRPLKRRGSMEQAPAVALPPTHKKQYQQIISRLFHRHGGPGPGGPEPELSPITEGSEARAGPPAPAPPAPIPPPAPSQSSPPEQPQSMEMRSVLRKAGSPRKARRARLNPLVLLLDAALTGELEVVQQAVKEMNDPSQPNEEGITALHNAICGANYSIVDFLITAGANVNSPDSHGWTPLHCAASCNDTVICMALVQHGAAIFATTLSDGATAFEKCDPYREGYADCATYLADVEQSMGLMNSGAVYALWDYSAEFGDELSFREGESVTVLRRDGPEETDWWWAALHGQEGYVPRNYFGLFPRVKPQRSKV
UniProt Q66LE6: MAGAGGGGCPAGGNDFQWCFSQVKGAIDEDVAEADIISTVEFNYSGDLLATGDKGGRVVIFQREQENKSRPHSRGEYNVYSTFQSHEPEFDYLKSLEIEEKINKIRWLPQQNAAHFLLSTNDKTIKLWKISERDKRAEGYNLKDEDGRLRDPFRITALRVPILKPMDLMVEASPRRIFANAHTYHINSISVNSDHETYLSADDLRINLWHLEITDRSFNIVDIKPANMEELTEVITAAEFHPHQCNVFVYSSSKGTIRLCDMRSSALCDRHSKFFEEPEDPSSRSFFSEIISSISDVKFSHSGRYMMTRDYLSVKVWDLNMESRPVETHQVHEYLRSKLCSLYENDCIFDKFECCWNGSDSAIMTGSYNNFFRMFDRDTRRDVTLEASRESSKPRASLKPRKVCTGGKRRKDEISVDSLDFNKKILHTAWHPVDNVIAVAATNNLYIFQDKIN
UniProt Q86UA1: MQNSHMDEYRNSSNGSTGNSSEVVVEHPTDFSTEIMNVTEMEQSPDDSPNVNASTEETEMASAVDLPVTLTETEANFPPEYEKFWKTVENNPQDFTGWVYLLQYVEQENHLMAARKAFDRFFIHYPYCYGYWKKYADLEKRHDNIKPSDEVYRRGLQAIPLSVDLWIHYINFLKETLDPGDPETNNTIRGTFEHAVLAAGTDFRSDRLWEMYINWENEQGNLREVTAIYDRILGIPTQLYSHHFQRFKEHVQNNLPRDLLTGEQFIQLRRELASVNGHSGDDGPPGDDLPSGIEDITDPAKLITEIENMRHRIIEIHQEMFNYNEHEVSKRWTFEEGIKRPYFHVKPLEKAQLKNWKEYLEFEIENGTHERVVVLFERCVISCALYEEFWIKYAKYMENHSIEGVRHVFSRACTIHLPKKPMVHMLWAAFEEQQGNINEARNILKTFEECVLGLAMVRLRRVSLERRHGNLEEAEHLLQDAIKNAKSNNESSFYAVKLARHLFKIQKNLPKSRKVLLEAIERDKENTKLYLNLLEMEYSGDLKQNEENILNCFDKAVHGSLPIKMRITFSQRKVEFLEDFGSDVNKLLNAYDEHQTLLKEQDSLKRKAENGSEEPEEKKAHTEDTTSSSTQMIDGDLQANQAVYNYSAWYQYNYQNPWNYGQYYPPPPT
UniProt O95685: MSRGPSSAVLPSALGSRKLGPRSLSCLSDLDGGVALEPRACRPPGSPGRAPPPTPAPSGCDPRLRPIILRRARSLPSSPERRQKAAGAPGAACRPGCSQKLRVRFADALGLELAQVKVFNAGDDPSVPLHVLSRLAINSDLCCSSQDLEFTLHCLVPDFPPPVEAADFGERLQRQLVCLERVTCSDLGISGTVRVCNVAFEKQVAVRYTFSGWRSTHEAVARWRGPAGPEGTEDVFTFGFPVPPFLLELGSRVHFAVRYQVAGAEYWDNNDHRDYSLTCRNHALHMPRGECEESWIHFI
UniProt Q6ZMI0: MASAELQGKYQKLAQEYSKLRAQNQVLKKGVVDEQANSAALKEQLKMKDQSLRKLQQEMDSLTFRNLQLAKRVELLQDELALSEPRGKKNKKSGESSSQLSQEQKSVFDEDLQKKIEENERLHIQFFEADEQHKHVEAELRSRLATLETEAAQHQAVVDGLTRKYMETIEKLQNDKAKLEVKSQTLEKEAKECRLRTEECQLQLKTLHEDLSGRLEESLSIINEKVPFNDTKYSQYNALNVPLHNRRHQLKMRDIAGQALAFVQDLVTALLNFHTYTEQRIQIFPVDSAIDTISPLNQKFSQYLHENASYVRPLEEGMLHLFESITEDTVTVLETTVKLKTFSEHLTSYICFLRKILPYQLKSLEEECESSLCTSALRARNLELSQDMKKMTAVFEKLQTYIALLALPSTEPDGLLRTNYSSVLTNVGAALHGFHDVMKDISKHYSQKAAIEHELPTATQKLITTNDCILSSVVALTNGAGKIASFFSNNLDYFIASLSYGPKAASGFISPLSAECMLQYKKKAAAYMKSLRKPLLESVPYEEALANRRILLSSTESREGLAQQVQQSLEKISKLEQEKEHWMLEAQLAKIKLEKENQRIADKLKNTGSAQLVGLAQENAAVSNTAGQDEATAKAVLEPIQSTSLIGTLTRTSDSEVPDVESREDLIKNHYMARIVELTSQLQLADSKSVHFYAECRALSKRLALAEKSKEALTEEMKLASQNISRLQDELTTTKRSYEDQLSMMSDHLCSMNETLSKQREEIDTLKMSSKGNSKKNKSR
UniProt P79522: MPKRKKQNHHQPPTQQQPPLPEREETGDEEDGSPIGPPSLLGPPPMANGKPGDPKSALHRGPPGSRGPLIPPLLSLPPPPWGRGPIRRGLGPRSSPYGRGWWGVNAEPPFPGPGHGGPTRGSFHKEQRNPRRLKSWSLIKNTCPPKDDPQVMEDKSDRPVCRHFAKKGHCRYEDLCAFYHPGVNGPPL
UniProt Q96LW4: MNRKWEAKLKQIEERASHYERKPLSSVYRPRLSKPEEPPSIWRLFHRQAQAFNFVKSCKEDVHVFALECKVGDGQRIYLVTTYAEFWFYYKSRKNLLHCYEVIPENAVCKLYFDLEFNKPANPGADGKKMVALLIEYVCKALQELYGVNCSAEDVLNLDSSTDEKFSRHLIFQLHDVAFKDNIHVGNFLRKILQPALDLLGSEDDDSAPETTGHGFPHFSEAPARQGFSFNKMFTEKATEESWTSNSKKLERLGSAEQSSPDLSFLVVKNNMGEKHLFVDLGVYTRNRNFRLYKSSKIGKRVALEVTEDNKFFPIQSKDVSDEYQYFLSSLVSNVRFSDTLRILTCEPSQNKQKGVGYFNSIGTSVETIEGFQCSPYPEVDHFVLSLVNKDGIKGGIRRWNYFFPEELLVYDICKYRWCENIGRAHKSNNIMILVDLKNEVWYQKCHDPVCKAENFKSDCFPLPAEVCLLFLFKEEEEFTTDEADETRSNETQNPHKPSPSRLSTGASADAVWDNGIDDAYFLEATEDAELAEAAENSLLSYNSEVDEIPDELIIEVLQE

Tests used:
Assay in all cases: log2 fold change, soluble protein after heating vs DMSO (PISA); higher = thermal stabilisation; K562 cells, 10 uM, 30 min; active = over 0.2 and 3.5 SD of the protein, either way, in both replicates (recomputed)
[1] = compound: CC1=C(SC2=C1C(=N[C@H](C3=NN=C(N32)C)CC(=O)N)C4=CC=C(C=C4)Cl)C
Method in brief: (§1)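 For each measurement, 10 μM compound was applied for 30 min to K562 cells at 2×10^6 cells/mL. Aliquots were heated for 3 min across 48°C-58°C, pooled, and extracted in PBS with 0.5% NP-40 at 4°C; the supernatant after 21,000xg for 90 min was soluble protein. This was quantified by TMTpro 16plex LC-MS/MS with channel sums equalised, and thermal stability was reported relative to control samples from duplicates, on a log2 fold-change scale.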

[2] = compound: Cc1sc2c(c1C)C(c1ccc(Cl)cc1)=N[C@@H](CC(=O)OC(C)(C)C)c1nnc(C)n1-2
Method in brief: as §1

[3] = compound: c1ccc([C@@H]2C[C@H]2NC2CCNCC2)cc1
Method in brief: as §1

[4] = compound: C1=CC=C(C=C1)[C@H](COC2=CC3=C(C=C2)NC(=O)N3)NC(=O)C4=CC=CN(C4=O)CC5=CC(=C(C=C5)F)F
Method in brief: as §1

[5] = compound: CC1=C2C(=CC=C1)N=C(N(C2=O)C3=CC=CC=C3C)CN4C=NC5=C(N=CN=C54)N
Method in brief: as §1

Measured: log2 fold change

PROSER3, A0A2R8Y8D9
inactive: [1] -0.022 | [2] -0.115 | [3] -0.108

PPP2R3C (UniProt Q969Q6)
inactive: [2] 0.122

PRKRIP1 (UniProt Q9H875)
inactive: [4] -0.015 | [1] 0.031 | [5] -0.017 | [2] 0.089 | [3] -0.051

PPP2R3B (UniProt Q9Y5P8)
inactive: [5] 0.13 | [2] -0.01

3 successive records from above:
PROSER3, A0A2R8Y8D9
inactive: [1] -0.022 | [2] -0.115 | [3] -0.108

PPP2R3C (UniProt Q969Q6)
inactive: [2] 0.122

PRKRIP1 (UniProt Q9H875)
inactive: [4] -0.015 | [1] 0.031 | [5] -0.017 | [2] 0.089 | [3] -0.051

The results go on:

PRPF4 (UniProt O43172)
inactive: [4] -0.028 | [1] 0.01 | [5] 0.034 | [2] -0.02 | [3] -0.01

PPP1R13L (UniProt Q8WUF5)
inactive: [4] -0.271 | [5] -0.023 | [2] -0.051

PPP2R2D (UniProt Q66LE6)
inactive: [4] -0.085 | [1] 0.048 | [5] 0.057 | [2] 0.113 | [3] 0.048

PRPF39 (UniProt Q86UA1)
inactive: [1] -0.101 | [2] 0.185 | [3] 0.144

PPP1R3D (UniProt O95685)
inactive: [4] -0.101 | [1] 0.044 | [2] -0.105 | [3] -0.04

PPP1R21 (UniProt Q6ZMI0)
inactive: [4] 0.076 | [1] 0.066 | [5] 0.133 | [3] 0.089

PRR3 (UniProt P79522)
inactive: [2] 0.306

PRIMPOL (UniProt Q96LW4)
inactive: [1] 0.183 | [2] -0.049 | [3] 0.012
